Data reported in the supplement of paper PMC10470496.
Where a name gives a salt, the structure may show the parent alone. Some of the results follow. Single values are uncertain, as repeats are few or missing.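 The three strains are clinical Candida auris isolates from the CDC resistance isolate bank, from clades III, IV and I, grown in RPMI-1640 at 35°C. Growth is background-corrected OD600 relative to vehicle-only wells on the same plate; a hit meant over 50% inhibition in at least two strains plus a plate-corrected B-score above 0.1.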

Experiments:
Assay in all cases: growth relative to vehicle control (OD600 ratio) (fraction); higher = less inhibition
Conditions in all cases: 24 h
C. auris AR-384 = tested on: C. auris AR-384
C. auris AR-386 = tested on: C. auris AR-386
C. auris AR-387 = tested on: C. auris AR-387

| SMILES | growth (C. auris AR-384; 1 µM) | growth (C. auris AR-384; 10 µM) | growth (C. auris AR-386; 1 µM) | growth (C. auris AR-386; 10 µM) | growth (C. auris AR-387; 1 µM) | growth (C. auris AR-387; 10 µM) |
| --- | --- | --- | --- | --- | --- | --- |
| C[C@]1(O)C[C@@H](c2nc(-c3ccc4ccc(-c5ccccc5)nc4c3)c3c(N)nccn32)C1 [Linsitinib (OSI-906)] | 0.92 | 0.75 | 0.77 | 1.15 | 1.01 | 1.03 |
| CC(C)NCC(O)COc1ccc(COCCOC(C)C)cc1 (stereo unspecified) [Bisoprolol fumarate] | 0.85 | 1.14 | 1.17 | 0.58 | 0.98 | 0.67 |
| C[C@]12CC[C@@H]3c4ccc(O)cc4CC[C@H]3[C@@H]1CC[C@@H]2OC(=O)CCC1CCCC1 [Estradiol Cypionate] | 1.03 | 0.9 | 0.85 | 0.92 | 0.97 | 0.7 |
| O=C(O)CCc1nc(-c2ccccc2)c(-c2ccccc2)o1 [Oxaprozin] | 1.1 | 1.04 | 1.23 | 0.92 | 0.88 | 0.67 |
| N#Cc1ccc(C(c2ccc(C#N)cc2)n2cncn2)cc1 [Letrozole] | 0.77 | 0.48 | 0.57 | 0.69 | 0.81 | 0.83 |
| CCc1ccc(CCOc2ccc(CC3SC(=O)NC3=O)cc2)nc1 (stereo unspecified) [Pioglitazone HCl] | 0.84 | 1.11 | 1.08 | 1.47 | 1.51 | 1.15 |
| O=c1[nH]c(=O)n([C@H]2C[C@H](O)[C@@H](CO)O2)cc1F [Floxuridine] | 0.99 | 0.58 | 0.82 | 0.58 | 0.92 | 0.27 |
| CC(C)OC(=O)[C@H](C)N[P@](=O)(OC[C@H]1O[C@@H](n2ccc(=O)[nH]c2=O)[C@](C)(F)[C@@H]1O)Oc1ccccc1 [Sofosbuvir (PSI-7977, GS-7977)] | 0.95 | 1.17 | 0.97 | 0.74 | 0.81 | 0.67 |
| CCCCCOc1ccc(-c2ccc(-c3ccc(C(=O)N[C@H]4C[C@@H](O)[C@@H](O)NC(=O)[C@@H]5[C@@H](O)[C@@H](C)CN5C(=O)[C@H]([C@@H](C)O)NC(=O)[C@H]([C@H](O)[C@@H](O)c5ccc(O)cc5)NC(=O)[C@@H]5C[C@@H](O)CN5C(=O)[C@H]([C@@H](C)O)NC4=O)cc3)cc2)cc1 | 0.52 | 0.38 | 0.14 | 0.11 | 0.09 | 0.08 |
| N=C(N)NC(=N)NCCc1ccccc1 [Phenformin HCl] | 0.78 | 0.6 | 1.01 | 1 | 0.84 | 0.73 |
| COc1cc2nc(N(C)CCCNC(=O)C3CCCO3)nc(N)c2cc1OC (stereo unspecified) [Alfuzosin HCl] | 0.95 | 0.75 | 0.65 | 1.09 | 0.8 | 0.78 |
| C[C@@H]1NC(=O)[C@@H](N)CNC(=O)[C@H](C2CCNC(=N)N2)NC(=O)/C(=C/NC(N)=O)NC(=O)[C@H](CNC(=O)CC(N)CCCN)NC1=O.N=C1NCC[C@H]([C@@H]2NC(=O)/C(=C/NC(N)=O)NC(=O)[C@H](CNC(=O)C[C@@H](N)CCCN)NC(=O)[C@H](CO)NC(=O)[C@@H](N)CNC2=O)N1 [Capreomycin Sulfate] | 1.01 | 1.37 | 0.94 | 1.26 | 0.76 | 1.11 |
| O=C(O)c1ccccc1Nc1cccc(C(F)(F)F)c1 [Flufenamic acid] | 0.78 | 0.85 | 0.73 | 0.78 | 0.67 | 0.67 |
| CC(C)[C@H](O)C(=O)N[C@@H](C)C(=O)N[C@@H]1C(=O)N(C)CCc2ccccc21 | 1.33 | 1.16 | 1.25 | 0.84 | 0.71 | 1.16 |
| CCn1cc(C(=O)O)c(=O)c2cc(F)c(N3CCNC(C)C3)c(F)c21 (stereo unspecified) [Lomefloxacin HCl] | 1.3 | 1.11 | 0.94 | 1.28 | 1.12 | 1.06 |
| CO/N=C(\C(=O)N[C@@H]1C(=O)N2C(C(=O)O)=C(COC(N)=O)CS[C@H]12)c1ccco1 [Cefuroxime sodium] | 0.98 | 1.14 | 1.19 | 0.84 | 0.99 | 1.04 |
| COc1ccc(C(Cl)=C(c2ccc(OC)cc2)c2ccc(OC)cc2)cc1 [Chlorotrianisene] | 0.84 | 0.91 | 0.89 | 1.06 | 0.64 | 0.8 |
| Oc1ccc(C2CNCCc3c2cc(O)c(O)c3Cl)cc1 (stereo unspecified) [Fenoldopam mesylate] | 1.05 | 1.51 | 1.04 | 1.3 | 1.28 | 1.37 |
| FC(F)(F)C(Cl)Br (stereo unspecified) [Halothane] | 1.13 | 1.42 | 0.89 | 1.2 | 0.97 | 1.21 |
| Cc1cc(=O)n(-c2ccccc2)n1C [Antipyrine] | 1.11 | 0.85 | 0.66 | 0.93 | 0.77 | 0.88 |
| CS(=O)(=O)OCCCCOS(C)(=O)=O [Busulfan] | 1.02 | 0.65 | 1.02 | 1.13 | 1.01 | 0.86 |
| CC(C)(C)c1ccc(C(=O)CCCN2CCC(OC(c3ccccc3)c3ccccc3)CC2)cc1 [Ebastine] | 0.87 | 0.92 | 0.92 | 0.75 | 0.8 | 0.79 |
| C/C=C(/C)C(=O)O[C@H]1[C@H](OC(C)=O)[C@@]2(CO)C(CC1(C)C)C1=CCC3[C@@]4(C)CCC(O[C@@H]5O[C@H](C(=O)O)[C@@H](O[C@@H]6O[C@H](CO)[C@@H](O)[C@H](O)[C@H]6O)[C@H](O)[C@H]5O[C@@H]5O[C@H](CO)[C@@H](O)[C@H](O)[C@H]5O)[C@](C)(CO)C4CC[C@@]3(C)[C@]1(C)C[C@H]2O.C/C=C(\C)C(=O)O[C@H]1[C@H](OC(C)=O)[C@@]2(CO)C(CC1(C)C)C1=CCC3[C@@]4(C)CCC(O[C@@H]5O[C@H](C(=O)O)[C@@H](O[C@@H]6O[C@H](CO)[C@@H](O)[C@H](O)[C@H]6O)[C@H](O)[C@H]5O[C@@H]5O[C@H](CO)[C@@H](O)[C@H](O)[C@H]5O)[C@](C)(CO)C4CC[C@@]3(C)[C@]1(C)C[C@H]2O (stereo partly specified) [Escin] | 0.87 | 0.98 | 0.94 | 0.88 | 0.96 | 0.63 |

| SMILES | growth (C. auris AR-384; 1 µM) | growth (C. auris AR-384; 10 µM) | growth (C. auris AR-386; 1 µM) | growth (C. auris AR-386; 10 µM) | growth (C. auris AR-387; 1 µM) | growth (C. auris AR-387; 10 µM) |
| --- | --- | --- | --- | --- | --- | --- |
| CN1CCN(CCOc2cc(OC3CCOCC3)c3c(Nc4c(Cl)ccc5c4OCO5)ncnc3c2)CC1 [Saracatinib (AZD0530)] | 0.75 | 0.58 | 0.58 | 0.77 | 0.65 | 0.77 |
| CSc1ccc2c(c1)N(CCC1CCCCN1C)c1ccccc1S2 (stereo unspecified) [Thioridazine HCl] | 1.16 | 1.21 | 1.38 | 1.32 | 1.48 | 1.44 |
| O=C(O)c1cccnc1Nc1cccc(C(F)(F)F)c1 [Niflumic acid] | 0.91 | 0.67 | 0.75 | 0.73 | 0.67 | 0.75 |
| COc1ncnc(NS(=O)(=O)c2ccc(N)cc2)c1OC [Sulfadoxine] | 0.74 | 0.6 | 0.77 | 0.97 | 0.7 | 0.55 |
| COc1ccccc1OCC(O)CN1CCN(CC(=O)Nc2c(C)cccc2C)CC1 (stereo unspecified) [Ranolazine 2HCl] | 0.84 | 0.63 | 0.77 | 0.7 | 0.7 | 0.64 |
| COc1ccc2[nH]cc(CCNC(C)=O)c2c1 [Melatonin] | 1.06 | 1.43 | 1.28 | 0.79 | 0.94 | 0.94 |
| CS(=O)(=O)c1ccc([C@@H](O)[C@@H](CF)NC(=O)C(Cl)Cl)cc1 [Florfenicol] | 1.04 | 0.7 | 0.85 | 0.93 | 0.91 | 1.01 |
| CCOC(=O)[C@H](CCc1ccccc1)N[C@H]1CS[C@H](c2cccs2)CN(CC(=O)O)C1=O [Temocapril HCl] | 0.9 | 0.94 | 0.92 | 0.63 | 1 | 0.87 |
| Cc1ccc(F)c(NC(=O)Nc2ccc(-c3cccc4[nH]nc(N)c34)cc2)c1 [Linifanib (ABT-869)] | 1 | 0.68 | 0.58 | 0.74 | 0.91 | 0.86 |
| COc1cc2c(cc1Cc1cccc(Cl)c1F)c(=O)c(C(=O)O)cn2[C@H](CO)C(C)C [Elvitegravir (GS-9137, JTK-303)] | 0.86 | 0.97 | 0.98 | 0.71 | 1.2 | 0.92 |
| COc1ccc([C@]2(C#N)CC[C@@H](C(=O)O)CC2)cc1OC1CCCC1 [Cilomilast] | 0.77 | 0.71 | 0.94 | 1.05 | 0.83 | 0.9 |
| O=C(O)COCCN1CCN(C(c2ccccc2)c2ccc(Cl)cc2)CC1 (stereo unspecified) [Cetirizine DiHCl] | 0.8 | 1.31 | 1.15 | 0.83 | 0.8 | 1 |
| CC(C)(C)C#Cc1cc(N(C(=O)[C@H]2CC[C@H](C)CC2)[C@H]2CC[C@H](O)CC2)c(C(=O)O)s1 [Lomibuvir (VX-222, VCH-222)] | 1.19 | 1.2 | 1.11 | 0.76 | 0.85 | 1.04 |
| O=C(c1ccc(OCCN2CCCCC2)cc1)c1c(-c2ccc(O)cc2)sc2cc(O)ccc12 [Raloxifene HCl] | 0.75 | 0.85 | 0.82 | 0.88 | 0.91 | 0.9 |
| O=C(NC[C@H](O)CO)c1ccncc1Nc1ccc(I)cc1F | 0.88 | 1 | 1.17 | 0.97 | 1.05 | 1.13 |
| C[C@]1(Cn2ccnn2)[C@H](C(=O)O)N2C(=O)C[C@H]2S1(=O)=O [Tazobactam] | 1.04 | 0.89 | 0.91 | 0.66 | 0.73 | 0.69 |
| COC1=C(OC)C(=O)C(CCCCCCCCCCO)=C(C)C1=O [Idebenone] | 0.95 | 0.88 | 1.05 | 1.01 | 1.15 | 0.9 |
| COC(=O)Nc1nc2cc(C(=O)c3ccccc3)ccc2[nH]1 [Mebendazole] | 1.05 | 0.82 | 1 | 0.86 | 0.77 | 1.22 |
| C[C@@H](NCCCc1cccc(C(F)(F)F)c1)c1cccc2ccccc12 [Cinacalcet HCl] | 0.89 | 0.51 | 0.64 | 0.66 | 1.04 | 0.56 |
| C=CC1=C(C(=O)O)N2C(=O)[C@@H](NC(=O)/C(=N\OCC(=O)O)c3csc(N)n3)[C@H]2SC1 [Cefixime] | 1.15 | 1.41 | 1.28 | 1 | 0.91 | 0.97 |
| COc1ccc2[nH]c([S+]([O-])Cc3ncc(C)c(OC)c3C)nc2c1 (stereo unspecified) [Omeprazole] | 0.91 | 0.99 | 1.24 | 1.24 | 1.17 | 1.05 |
| CC[C@]1(O)C[C@H]2CN(CCc3c([nH]c4ccccc34)[C@@](C(=O)OC)(c3cc4c(cc3OC)N(C=O)[C@H]3[C@@](O)(C(=O)OC)[C@H](OC(C)=O)[C@]5(CC)C=CCN6CC[C@]43[C@@H]65)C2)C1 [Vincristine sulfate] | 0.89 | 0.54 | 0.4 | 0.73 | 0.67 | 0.65 |
| C=C1c2cccc(O)c2C(=O)C2=C(O)[C@]3(O)C(=O)C(C(N)=O)=C(O)[C@@H](N(C)C)[C@@H]3[C@@H](O)[C@H]12 [Methacycline HCl] | 1.14 | 1.34 | 1.08 | 1.29 | 1.05 | 1.31 |

Entries of single compounds as entered above. Order of values: growth (C. auris AR-384; 1 µM) | growth (C. auris AR-384; 10 µM) | growth (C. auris AR-386; 1 µM) | growth (C. auris AR-386; 10 µM) | growth (C. auris AR-387; 1 µM) | growth (C. auris AR-387; 10 µM)
O=C(O)COCCN1CCN(C(c2ccccc2)c2ccc(Cl)cc2)CC1 (stereo unspecified) [Cetirizine DiHCl] as listed: 0.8 | 1.31 | 1.15 | 0.83 | 0.8 | 1
C=CC1=C(C(=O)O)N2C(=O)[C@@H](NC(=O)/C(=N\OCC(=O)O)c3csc(N)n3)[C@H]2SC1 [Cefixime] as listed: 1.15 | 1.41 | 1.28 | 1 | 0.91 | 0.97
